Assay results reported in article PMC8853558.
Results are given in words; binding and its absence hold for the method and conditions named. Some results given as binding are weak or reduced against the parent protein; the word gives no strength. For part of these data: Where a sequence is shown, tags or fusion partners need not be part of it.

Protein sequences, listed by entry. Tags and fused reporters are not part of them.
UniProt Q15554: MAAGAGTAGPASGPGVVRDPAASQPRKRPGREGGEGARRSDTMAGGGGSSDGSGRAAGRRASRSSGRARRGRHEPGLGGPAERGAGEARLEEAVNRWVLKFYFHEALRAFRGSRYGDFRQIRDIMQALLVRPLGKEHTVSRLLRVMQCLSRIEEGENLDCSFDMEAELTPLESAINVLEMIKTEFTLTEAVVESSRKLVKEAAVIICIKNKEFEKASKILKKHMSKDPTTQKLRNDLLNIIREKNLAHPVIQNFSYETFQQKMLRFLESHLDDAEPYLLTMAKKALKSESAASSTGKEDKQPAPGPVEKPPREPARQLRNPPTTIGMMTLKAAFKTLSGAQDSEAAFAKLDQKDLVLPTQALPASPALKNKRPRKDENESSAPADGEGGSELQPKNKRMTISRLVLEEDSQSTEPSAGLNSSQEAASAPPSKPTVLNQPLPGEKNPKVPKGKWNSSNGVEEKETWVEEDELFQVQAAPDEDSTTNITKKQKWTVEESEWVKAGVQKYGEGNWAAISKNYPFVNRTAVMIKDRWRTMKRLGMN

How the values were obtained:
[1] = target: T1, Protection of telomeres protein 1 (POT1), full-length (1-634) (human) (UniProt Q9NUX5); assay: co-purification (HisTrap affinity, then SEC); POT1, TPP1 and TIN2(1-354) co-expressed in Sf9; lysate on HisTrap HP through the His-10 tag of POT1, 1 M NaCl wash, imidazole elution, TEV, second HisTrap, Superdex 200 Increase 10/300 GL in 300 mM NaCl, 20 mM Hepes pH 7.5, 10% glycerol, 1 mM …; SDS-PAGE of the peak
T1 sequence: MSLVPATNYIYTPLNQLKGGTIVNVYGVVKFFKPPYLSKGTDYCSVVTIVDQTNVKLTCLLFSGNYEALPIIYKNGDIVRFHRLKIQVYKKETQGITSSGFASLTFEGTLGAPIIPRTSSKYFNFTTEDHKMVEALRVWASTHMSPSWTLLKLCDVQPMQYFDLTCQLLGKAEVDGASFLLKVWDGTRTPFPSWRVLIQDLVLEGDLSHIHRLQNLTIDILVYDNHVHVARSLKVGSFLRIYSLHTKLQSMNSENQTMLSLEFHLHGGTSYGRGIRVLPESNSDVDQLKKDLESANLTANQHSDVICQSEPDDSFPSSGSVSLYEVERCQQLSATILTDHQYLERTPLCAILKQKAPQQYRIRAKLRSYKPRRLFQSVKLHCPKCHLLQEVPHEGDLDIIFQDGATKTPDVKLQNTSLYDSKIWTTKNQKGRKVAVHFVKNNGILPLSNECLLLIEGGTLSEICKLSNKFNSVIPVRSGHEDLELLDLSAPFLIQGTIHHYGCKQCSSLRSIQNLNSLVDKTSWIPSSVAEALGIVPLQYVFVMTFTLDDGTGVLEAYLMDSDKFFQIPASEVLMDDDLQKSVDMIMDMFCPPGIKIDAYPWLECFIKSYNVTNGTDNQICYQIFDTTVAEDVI

[2] = target: T1, Protection of telomeres protein 1 (POT1), full-length (1-634) (human); assay: native gel or EMSA; WEMSA: purified POT1-TPP1-TIN2(1-354) (10 pM to 100 nM) with 10 or 20 nM 32P-labelled telo64 DNA, native PAGE, electroblot to PVDF, phosphorimaging, then immunoblot with anti-TIN2, anti-TPP1 and anti-POT1; both purified
[3] = target: TRF2, full-length (1-542) (UniProt Q15554); assay: co-purification (StrepTrap affinity, then SEC); TRF2 and untagged RAP1 co-expressed in Sf9; lysate on StrepTrap HP through the Twin-Strep-tag of TRF2, 1 M NaCl wash, desthiobiotin elution, TEV, Superdex 200 Increase 10/300 GL in 300 mM NaCl, 20 mM Hepes pH 7.5, 10% glycerol, 0.5 mM TCEP; SDS-PAGE of the peak

B1: TIN2(1-354), C-terminal truncation variant (domain or fragment, UniProt Q9BSI4 1-354)
chain: MATPLVAGPAALRFAAAASWQVVRGRCVEHFPRVLEFLRSLRAVAPGLVRYRHHERLCMGLKAKVVVELILQGRPWAQVLKALNHHFPESGPIVRDPKATKQDLRKILEAQETFYQQVKQLSEAPVDLASKLQELEQEYGEPFLAAMEKLLFEYLCQLEKALPTPQAQQLQDVLSWMQPGVSITSSLAWRQYGVDMGWLLPECSVTDSVNLAEPMEQNPPQQQRLALHNPLPKAKPGTHLPQGPSSRTHPEPLAGRHFNLAPLGRRRVQSQWASTRGGHKERPTVMLFPFRNLGSPTQVISKPESKEEHAIYTADLAMGTRAASTGKSKSPCQTLGGRALKENPVDLPATEQKE
For B1, the binding [1] was “binds” and the binding [2] was “binds”.

B2: RAP1, full-length (1-399), untagged (protein, UniProt Q9NYB0 1-399)
chain: MAEAMDLGKDPNGPTHSSTLFVRDDGSSMSFYVRPSPAKRRLSTLILHGGGTVCRVQEPGAVLLAQPGEALAEASGDFISTQYILDCVERNERLELEAYRLGPASAADTGSEAKPGALAEGAAEPEPQRHAGRIAFTDADDVAILTYVKENARSPSSVTGNALWKAMEKSSLTQHSWQSLKDRYLKHLRGQEHKYLLGDAPVSPSSQKLKRKAEEDPEAADSGEPQNKRTPDLPEEEYVKEEIQENEEAVKKMLVEATREFEEVVVDESPPDFEIHITMCDDDPPTPEEDSETQPDEEEEEEEEKVSQPEVGAAIKIIRQLMEKFNLDLSTVTQAFLKNSGELEATSAFLASGQRADGYPIWSRQDDIDLQKDDEDTREALVKKFGAQNVARRIEFRKK
With B2 the binding [3] was “binds”.
